# From publication doi:10.1101/2023.08.31.555694
# Amino acid sequences for entries named in this document (tags omitted).
# UniProt Q66125, whole entry: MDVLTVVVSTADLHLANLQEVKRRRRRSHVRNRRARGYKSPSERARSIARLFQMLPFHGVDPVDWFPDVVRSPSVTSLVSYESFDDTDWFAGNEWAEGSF
# UniProt P17769, whole entry: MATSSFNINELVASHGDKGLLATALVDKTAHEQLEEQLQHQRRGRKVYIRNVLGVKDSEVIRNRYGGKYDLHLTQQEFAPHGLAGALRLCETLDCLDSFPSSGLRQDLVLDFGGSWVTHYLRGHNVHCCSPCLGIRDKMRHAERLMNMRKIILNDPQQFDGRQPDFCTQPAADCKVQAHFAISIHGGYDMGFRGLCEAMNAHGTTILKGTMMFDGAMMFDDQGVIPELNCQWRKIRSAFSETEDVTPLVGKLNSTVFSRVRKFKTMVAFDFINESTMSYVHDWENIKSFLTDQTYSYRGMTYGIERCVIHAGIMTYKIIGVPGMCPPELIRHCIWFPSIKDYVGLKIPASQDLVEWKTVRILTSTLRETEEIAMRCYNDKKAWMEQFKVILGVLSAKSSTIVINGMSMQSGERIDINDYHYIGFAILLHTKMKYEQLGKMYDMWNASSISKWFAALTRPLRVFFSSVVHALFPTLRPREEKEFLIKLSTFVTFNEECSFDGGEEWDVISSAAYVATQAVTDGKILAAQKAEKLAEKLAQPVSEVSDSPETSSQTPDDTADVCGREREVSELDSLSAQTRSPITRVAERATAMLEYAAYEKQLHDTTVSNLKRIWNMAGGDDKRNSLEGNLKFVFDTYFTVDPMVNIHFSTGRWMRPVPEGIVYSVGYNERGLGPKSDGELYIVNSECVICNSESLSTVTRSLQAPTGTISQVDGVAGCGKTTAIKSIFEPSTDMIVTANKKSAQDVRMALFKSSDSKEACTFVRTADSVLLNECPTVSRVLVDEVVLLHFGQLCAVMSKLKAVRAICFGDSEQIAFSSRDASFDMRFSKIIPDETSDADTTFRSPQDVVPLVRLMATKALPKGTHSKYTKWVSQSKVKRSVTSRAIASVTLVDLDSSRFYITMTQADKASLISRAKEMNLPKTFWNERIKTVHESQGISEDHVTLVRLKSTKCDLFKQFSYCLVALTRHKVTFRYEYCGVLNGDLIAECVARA
# Results are given in words; binding and its absence hold for the method and conditions named. In cells and extracts the contact can be indirect. Some results given as binding are weak or reduced against the parent protein; the word gives no strength. For some assays here: Sequences can lack the tags named with a protein.
# Tests used:
# [1] = molecular target: T1, GFP-AGO1 fusion protein (Arabidopsis thaliana Argonaute 1) (A. thaliana) (UniProt O04379); test: co-IP
# T1 sequence: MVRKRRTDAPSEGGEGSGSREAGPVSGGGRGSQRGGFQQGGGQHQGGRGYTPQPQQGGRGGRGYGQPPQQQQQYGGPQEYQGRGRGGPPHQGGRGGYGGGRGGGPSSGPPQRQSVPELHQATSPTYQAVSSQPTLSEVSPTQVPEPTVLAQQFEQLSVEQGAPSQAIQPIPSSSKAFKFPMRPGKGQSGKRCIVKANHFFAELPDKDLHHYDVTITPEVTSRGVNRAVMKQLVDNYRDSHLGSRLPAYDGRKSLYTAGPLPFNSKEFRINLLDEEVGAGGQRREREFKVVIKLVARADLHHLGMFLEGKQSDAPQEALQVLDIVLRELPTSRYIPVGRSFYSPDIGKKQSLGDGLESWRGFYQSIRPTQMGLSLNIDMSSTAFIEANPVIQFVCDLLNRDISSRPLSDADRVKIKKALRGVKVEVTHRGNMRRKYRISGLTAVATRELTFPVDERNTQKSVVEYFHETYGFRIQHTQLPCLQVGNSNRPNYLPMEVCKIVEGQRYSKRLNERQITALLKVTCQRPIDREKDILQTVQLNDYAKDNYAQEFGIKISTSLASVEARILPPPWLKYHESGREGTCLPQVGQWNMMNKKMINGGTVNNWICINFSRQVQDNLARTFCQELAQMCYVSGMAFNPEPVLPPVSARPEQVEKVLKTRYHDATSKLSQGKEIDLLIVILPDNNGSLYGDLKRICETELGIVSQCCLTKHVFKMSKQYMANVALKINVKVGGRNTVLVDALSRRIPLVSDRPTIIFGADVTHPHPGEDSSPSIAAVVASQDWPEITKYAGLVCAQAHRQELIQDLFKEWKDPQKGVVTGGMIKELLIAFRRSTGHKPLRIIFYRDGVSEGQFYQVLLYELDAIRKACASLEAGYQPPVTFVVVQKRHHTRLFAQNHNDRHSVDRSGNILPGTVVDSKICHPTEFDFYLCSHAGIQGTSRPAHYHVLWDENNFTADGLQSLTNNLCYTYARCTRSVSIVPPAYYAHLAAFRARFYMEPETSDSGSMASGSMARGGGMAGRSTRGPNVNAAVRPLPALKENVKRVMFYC
# [2] = molecular target: T2, Argonaute 1 protein-yellow fluorescent protein N-proximal domain fusion protein (A. thaliana) (UniProt O04379); test: split reporter
# T2 sequence: T1 sequence
# [3] = molecular target: LS-CMV 2b protein, split-YFP fusion for BiFC (cucumber mosaic virus, strain LS) (UniProt Q66125); test: split reporter
# [4] = molecular target: Fny-CMV 1a protein, YFP N-proximal domain fusion for BiFC (cucumber mosaic virus, strain Fny) (UniProt P17769); test: split reporter
# [5] = molecular target: LS-CMV 2b protein, C-terminal RFP fusion (cucumber mosaic virus, strain LS) (UniProt Q66125); test: co-IP
substance,measurement,setting,value
"LS-CMV 2b protein, C-terminal RFP fusion (from UniProt Q66125 1-100)",binding,[1],binds
"LS-CMV 2b protein, split-YFP fusion for BiFC (from UniProt Q66125 1-100)",binding,[2],binds
same,binding,[3],binds
same,binding,[4],no binding
GFP-tagged Fny-CMV 1a protein (from UniProt P17769 1-993),binding,[5],no binding
